The record followed here is patent US20120129757A1, “COMPOSITIONS AND METHODS FOR PROMOTING VASCULAR BARRIER FUNCTION AND TREATING PULONARY FIBROSIS” (priority 2008, published 2012).

Test [1] concerns the target T1, vascular endothelial cadherin (VE-cadherin) (human) (UniProt P33151).
T1 sequence (looked up): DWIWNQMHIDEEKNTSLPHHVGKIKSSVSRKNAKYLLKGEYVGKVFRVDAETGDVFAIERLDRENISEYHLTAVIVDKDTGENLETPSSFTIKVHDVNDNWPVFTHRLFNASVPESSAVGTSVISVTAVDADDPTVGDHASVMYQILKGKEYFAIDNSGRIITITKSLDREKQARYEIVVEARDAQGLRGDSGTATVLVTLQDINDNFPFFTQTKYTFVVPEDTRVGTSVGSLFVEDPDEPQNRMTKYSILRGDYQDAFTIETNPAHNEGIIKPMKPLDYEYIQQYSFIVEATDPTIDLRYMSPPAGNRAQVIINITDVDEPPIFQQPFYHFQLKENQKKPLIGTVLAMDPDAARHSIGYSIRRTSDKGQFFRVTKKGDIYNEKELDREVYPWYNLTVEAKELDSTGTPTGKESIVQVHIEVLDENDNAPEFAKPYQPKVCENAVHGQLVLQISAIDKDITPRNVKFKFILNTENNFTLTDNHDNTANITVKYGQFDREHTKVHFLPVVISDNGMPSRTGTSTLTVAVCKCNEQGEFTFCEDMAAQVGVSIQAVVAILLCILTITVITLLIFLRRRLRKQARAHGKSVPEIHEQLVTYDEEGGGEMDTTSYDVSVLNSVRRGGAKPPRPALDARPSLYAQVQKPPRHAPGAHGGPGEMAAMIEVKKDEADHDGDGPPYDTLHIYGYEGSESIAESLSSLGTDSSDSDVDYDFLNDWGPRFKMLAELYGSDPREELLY
In words: co-immunoprecipitation from HMVEC-lung lysates: IP for VE-cadherin, immunoblot for p120-catenin and VE-cadherin. For orientation: A western blot detects proteins with antibodies after separation by electrophoresis.

The target of test [2] is T1, vascular endothelial cadherin (VE-cadherin) (human). As to the kind of experiment: co-immunoprecipitation from HMVEC-lung lysates: IP for VE-cadherin, immunoblot for p120-catenin; IL-1β stimulation with Mock or Slit2N.

Results are given in words; binding and its absence hold for the method and conditions named. Binding seen in cells or lysates may run through a third protein. Some binding calls cover weakened binding; strength is not graded here.

B1: p120-catenin (protein, human, UniProt O60716 1-968, looked up)
chain: MDDSEVESTASILASVKEQEAQFEKLTRALEEERRHVSAQLERVRVSPQDANPLMANGTLTRRHQNGRFVGDADLERQKFSDLKLNGPQDHSHLLYSTIPRMQEPGQIVETYTEEDPEGAMSVVSVETSDDGTTRRTETTVKKVVKTVTTRTVQPVAMGPDGLPVDASSVSNNYIQTLGRDFRKNGNGGPGPYVGQAGTATLPRNFHYPPDGYSRHYEDGYPGGSDNYGSLSRVTRIEERYRPSMEGYRAPSRQDVYGPQPQVRVGGSSVDLHRFHPEPYGLEDDQRSMGYDDLDYGMMSDYGTARRTGTPSDPRRRLRSYEDMIGEEVPSDQYYWAPLAQHERGSLASLDSLRKGGPPPPNWRQPELPEVIAMLGFRLDAVKSNAAAYLQHLCYRNDKVKTDVRKLKGIPVLVGLLDHPKKEVHLGACGALKNISFGRDQDNKIAIKNCDGVPALVRLLRKARDMDLTEVITGTLWNLSSHDSIKMEIVDHALHALTDEVIIPHSGWEREPNEDCKPRHIEWESVLTNTAGCLRNVSSERSEARRKLRECDGLVDALIFIVQAEIGQKDSDSKLVENCVCLLRNLSYQVHREIPQAERYQEAAPNVANNTGPHAASCFGAKKGKDEWFSRGKKPIEDPANDTVDFPKRTSPARGYELLFQPEVVRIYISLLKESKTPAILEASAGAIQNLCAGRWTYGRYIRSALRQEKALSAIADLLTNEHERVVKAASGALRNLAVDARNKELIGKHAIPNLVKNLPGGQQNSSWNFSEDTVISILNTINEVIAENLEAAKKLRETQGIEKLVLINKSGNRSEKEVRAAALVLQTIWGYKELRKPLEKEGWKKSDFQVNLNNASRSQSSHSYDDSTLPLIDRNQKSDKKPDREEIQMSNMGSNTKSLDNNYSTPNERGDHNRTLDRSGDLGDMEPLKGTTPLMQDEGQESLEEELDVLVLDDEGGQVSYPSMQKI
For B1, the binding result in test [1] and in test [2] was “binds” in each case.
